Test results: US20220389013A1, “PYRIDOPYRIMIDINONE COMPOUNDS AND APPLICATIONS THEREOF” (BeBetter Med Inc., priority 2020, published 2022)

Assay: in vitro
Conditions: human

- efflux ratio at 90 min, 10 μM (Caco-2, pH 7.4): 0.95
- Papp A→B at 90 min, 10 μM (Caco-2, pH 7.4, Papp A-B Sample_01): 0.52 ×10⁻⁶ cm/s
- Papp A→B at 90 min, 10 μM (Caco-2, pH 7.4, Papp A-B Sample_02): 0.57 ×10⁻⁶ cm/s
- Papp A→B at 90 min, 10 μM (Caco-2, pH 7.4, Papp A-B mean value): 0.55 ×10⁻⁶ cm/s
- Papp B→A at 90 min, 10 μM (Caco-2, pH 7.4, Papp B-A Sample_01): 0.5 ×10⁻⁶ cm/s
- Papp B→A at 90 min, 10 μM (Caco-2, pH 7.4, Papp B-A Sample_02): 0.54 ×10⁻⁶ cm/s
- Papp B→A at 90 min, 10 μM (Caco-2, pH 7.4, Papp B-A mean value): 0.52 ×10⁻⁶ cm/s
SMILES: CC(C)NCC(O)COc1ccc(CC(N)=O)cc1 (stereo not shown) [Atenolol]
